Assay results taken from PMC4820897, “Structural insight in the toppling mechanism of an energy-coupling factor transporter” (Nature Communications, 2016).
No constants are given. Whether binding was seen depends on the method and setting. Binding calls can cover weak binding; strength is not graded here. For some assays here: Binding seen in cells or lysates may run through a third protein.

Assays:
[1] = molecular target: EcfA of the ECF module from Lactobacillus delbrueckii subsp. bulgaricus (Lactobacillus delbrueckii subsp. bulgaricus); assay: crystal structure; apo ECF–FolT2 complex (no nucleotides or folate), 3.0 Å; complex purified in DDM; both purified
[2] = molecular target: EcfA′ of the ECF module from Lactobacillus delbrueckii subsp. bulgaricus (Lactobacillus delbrueckii subsp. bulgaricus); assay: as above
[3] = molecular target: EcfA of the ECF module from Lactobacillus delbrueckii subsp. bulgaricus (Lactobacillus delbrueckii subsp. bulgaricus); assay: crystal structure; AMP–PNP-bound ECF–FolT2 complex, 3.3 Å; crystallised with 10 mM MgCl2, 10 mM AMP–PNP and 1 μM folate; complex purified in DDM; both purified
[4] = molecular target: EcfA′ of the ECF module from Lactobacillus delbrueckii subsp. bulgaricus (Lactobacillus delbrueckii subsp. bulgaricus); assay: as above
[5] = molecular target: EcfA of the ECF module from Lactobacillus delbrueckii subsp. bulgaricus (Lactobacillus delbrueckii subsp. bulgaricus); assay: co-purification (Ni2+-sepharose by the His10 tag on EcfA, then SEC); ECF–FolT1 complex co-expressed in E. coli, solubilised from membrane vesicles; the protocol is told for ECF–FolT2 (1% DDM, 50 mM KPi pH 7.5, 300 mM NaCl)

Measured: binding

B1: EcfT of the ECF module from Lactobacillus delbrueckii subsp. bulgaricus (protein, UniProt Q1GBI8 1-265)
chain: MSKIIIGRYLPGTTFVYRVDPRAKLLTTFYFIIMIFLANNWVSYLVISIFGLAYVFATGLKARVFWDGVKPMIWMIVFTSLLQTFFMAGGKVYWHWWIFTLSSEGLINGLYVFIRFAMIILVSTVMTVTTKPLEIADAMEWMLTPLKLFKVNVGMISLVISIALRFVPTLFDQTVKIMNAQRSRGADFNDGGLVKRAKSVVPMLVPLFIDSLEVALDLSTAMESRGYKGSEGRTRYRILEWSKVDLIPVAYCLLLTILMITTRKH
binds: all assays above
